The values that follow come from patent US20180086804A1 (COMMISSARIAT A L ENERGIE ATOMIQUE ET AUX ENERGIES …, published 2018).

Holding throughout (test): competition ELISA
The target in assay [1] is T1, HLA-DRB4 (HLA-DRB4*01:01) (human).
T1 construct: mature; purified from homozygous EBV-transformed lymphoblastoid cells with antibody L243

The target of the next assay is T2, HLA-DR7 (HLA-DRB1*07:01) (human).
T2 construct: mature; purified from homozygous EBV-transformed lymphoblastoid cells with antibody L243

Assay [2] concerns the target T3, HLA-DRB3 (HLA-DRB3*01:01) (human).
T3 construct: mature; purified from homozygous EBV-transformed lymphoblastoid cells with antibody L243

In assay [3] the target is T4, HLA-DRB5 (HLA-DRB5*01:01) (human).
T4 construct: mature; purified from homozygous EBV-transformed lymphoblastoid cells with antibody L243

For the next assay, the target named is T5, HLA-DR3 (HLA-DRB1*03:01) (human).
T5 construct: mature; purified from homozygous EBV-transformed lymphoblastoid cells with antibody L243

In assay [4] the target is T6, HLA-DR13 (HLA-DRB1*13:01) (human).
T6 construct: mature; purified from homozygous EBV-transformed lymphoblastoid cells with antibody L243

In assay [5] the target is T7, HLA-DR11 (HLA-DRB1*11:01) (human).
T7 construct: mature; purified from homozygous EBV-transformed lymphoblastoid cells with antibody L243

For assay [6], the target named is T8, HLA-DR15 (HLA-DRB1*15:01) (human).
T8 construct: mature; purified from homozygous EBV-transformed lymphoblastoid cells with antibody L243

The target of a further assay is T9, HLA-DR4 (HLA-DRB1*04:01) (human).
T9 construct: mature; purified from homozygous EBV-transformed lymphoblastoid cells with antibody L243

Results are given in words; binding and its absence hold for the method and conditions named.

With TAMFIASKYEEMYPP (C-terminal amide) [CCNB1 250-264], the binding result in assay [1] is given as “no binding (tested: rel. affinity >961)”.
Turning to AKISTLPQLNSALVQ (C-terminal amide) [CCNB1 410-424], the binding entry is “no binding (tested: rel. affinity >1036)” with HLA-DR7 (HLA-DRB1*07:01), “no binding (tested: rel. affinity >362)” in assay [2], “no binding (tested: rel. affinity >3467)” in [3] and “no binding (tested: rel. affinity >825)” with HLA-DR3 (HLA-DRB1*03:01).
For PTLQHYLSYTEESLL (C-terminal amide) [CCNB1 363-377], in assay [4], the binding result is given as “no binding (tested: rel. affinity >1949)”.
On to PNLCSEYVKDIYAYL (C-terminal amide) [CCNB1 164-178], for which the binding entry is reported as “no binding (tested: rel. affinity >1949)” in assay [4], “no binding (tested: rel. affinity >1949)” in [5] and “no binding (tested: rel. affinity >825)” with HLA-DR3 (HLA-DRB1*03:01).
For the molecule SKYEEMYPPEIGDFA (C-terminal amide) [CCNB1 256-270], the binding result in assay [4] is recorded as “no binding (tested: rel. affinity >1949)”; in assay [2], “no binding (tested: rel. affinity >362)”; in [1], “no binding (tested: rel. affinity >961)”; in the assay with HLA-DR3 (HLA-DRB1*03:01) it was “no binding (tested: rel. affinity >825)”.
Regarding ESLLPVMQHLAKNVV (C-terminal amide) [CCNB1 374-388], the binding entry in assay [2] is listed as “no binding (tested: rel. affinity >362)”.
Turning to GEWTPTLQHYLSYTE (C-terminal amide) [CCNB1 359-373], the binding entry is given as “no binding (tested: rel. affinity >1949)” in [4], “no binding (tested: rel. affinity >362)” in assay [2], “no binding (tested: rel. affinity >961)” in assay [1] and “no binding (tested: rel. affinity >825)” with HLA-DR3 (HLA-DRB1*03:01).
For the molecule DRFMQNNCVPKKMLQ (C-terminal amide) [CCNB1 231-245], the binding result in the assay with HLA-DR7 (HLA-DRB1*07:01) is listed as “no binding (tested: rel. affinity >1036)”; in assay [4], “no binding (tested: rel. affinity >1949)”; in assay [2], “no binding (tested: rel. affinity >362)”; in assay [1] it was “no binding (tested: rel. affinity >961)”; in the assay with HLA-DR3 (HLA-DRB1*03:01), “no binding (tested: rel. affinity >825)”; in assay [6] it was “no binding (tested: rel. affinity >329)”.
Consider PQLNSALVQDLAKAV (C-terminal amide) [CCNB1 416-430], for which the binding entry in assay [4] is reported as “no binding (tested: rel. affinity >1949)”.
The same measure, in the same setting: the same measure for AKYLMELTMLDYDMV (C-terminal amide) [CCNB1 323-337]: “no binding (tested: rel. affinity >1949)”.
Take LSYTEESLLPVMQHL (C-terminal amide) [CCNB1 369-383]: the binding entry in assay [4] was “no binding (tested: rel. affinity >1949)”; in assay [1], “no binding (tested: rel. affinity >961)”; with HLA-DR3 (HLA-DRB1*03:01), “no binding (tested: rel. affinity >825)”.
Take RALNFGLGRPLPLHF (C-terminal amide) [CCNB1 291-305]: the binding entry is “no binding (tested: rel. affinity >1949)” in assay [4], “no binding (tested: rel. affinity >362)” in [2], “no binding (tested: rel. affinity >961)” in assay [1] and “no binding (tested: rel. affinity >825)” with HLA-DR3 (HLA-DRB1*03:01).
Turning to MTVSIIDRFMQNNCV (C-terminal amide) [CCNB1 225-239], the binding entry in [4] is listed as “no binding (tested: rel. affinity >1949)”.
In the case of MEMKILRALNFGLGR (C-terminal amide) [CCNB1 285-299], the binding result in assay [2] is on record as “no binding (tested: rel. affinity >362)”.
On to PEIGDFAFVTDNTYT (C-terminal amide) [CCNB1 264-278], for which the results for the binding entry in assay [4] and in [1] were “no binding (tested: rel. affinity >1949)” and “no binding (tested: rel. affinity >961)”, respectively.
LHFLRRASKIGEVDV (C-terminal amide) [CCNB1 303-317]: the values for the binding entry in [2] and in assay [1] were “no binding (tested: rel. affinity >362)” and “no binding (tested: rel. affinity >961)”, respectively.
For EPILVDTASPSPMET (C-terminal amide) [CCNB1 118-132], the binding result with HLA-DR7 (HLA-DRB1*07:01) is recorded as “no binding (tested: rel. affinity >1036)”; in assay [4] it was “no binding (tested: rel. affinity >1949)”; in assay [5], “no binding (tested: rel. affinity >1949)”; in [3], “no binding (tested: rel. affinity >3467)”; in assay [1], “no binding (tested: rel. affinity >961)”.
With FAFVTDNTYTKHQIR (C-terminal amide) [CCNB1 269-283], the results for the binding result in [4] and in [1] were “no binding (tested: rel. affinity >1949)” and “no binding (tested: rel. affinity >961)”, respectively.
As for GDFAFVTDNTYTKHQ (C-terminal amide) [CCNB1 267-281], the binding result in assay [1] is recorded as “no binding (tested: rel. affinity >961)”.
Regarding QAVRPKYLLGREVTG (C-terminal amide) [CCNB1 185-199], the binding result is reported as “no binding (tested: rel. affinity >1036)” in the assay with HLA-DR7 (HLA-DRB1*07:01); “no binding (tested: rel. affinity >362)” in assay [2]; “no binding (tested: rel. affinity >961)” in assay [1]; “no binding (tested: rel. affinity >825)” in the assay with HLA-DR3 (HLA-DRB1*03:01); “no binding (tested: rel. affinity >329)” in assay [6].
Consider LDYDMVHFPPSQIAA (C-terminal amide) [CCNB1 332-346], for which the binding result was “no binding (tested: rel. affinity >1949)” in assay [4], “no binding (tested: rel. affinity >362)” in assay [2], “no binding (tested: rel. affinity >961)” in assay [1] and “no binding (tested: rel. affinity >825)” with HLA-DR3 (HLA-DRB1*03:01).
On to NKYATSKHAKISTLP (C-terminal amide) [CCNB1 402-416], for which the binding result was “no binding (tested: rel. affinity >1949)” in assay [4]; “no binding (tested: rel. affinity >362)” in assay [2]; “no binding (tested: rel. affinity >961)” in assay [1]; “no binding (tested: rel. affinity >825)” with HLA-DR3 (HLA-DRB1*03:01); “no binding (tested: rel. affinity >329)” in assay [6].
FRLLQETMYMTVSII (C-terminal amide) [CCNB1 216-230]: the binding result in [4] is listed as “no binding (tested: rel. affinity >1949)”.
For the molecule DWLVQVQMKFRLLQE (C-terminal amide) [CCNB1 207-221], the binding result in the assay with HLA-DR4 (HLA-DRB1*04:01) is given as “no binding (tested: rel. affinity >1771)”.
For the molecule AKINMAGAKRVPTAP (C-terminal amide) [CCNB1 17-31], the binding entry in [2] is listed as “no binding (tested: rel. affinity >362)”; in the assay with HLA-DR4 (HLA-DRB1*04:01) it was “no binding (tested: rel. affinity >1771)”; in assay [1], “no binding (tested: rel. affinity >961)”.
On to PMLVPVPVSEPVPEP (C-terminal amide) [CCNB1 87-101], for which the binding entry in assay [4] is “no binding (tested: rel. affinity >1949)”; in [2], “no binding (tested: rel. affinity >362)”; in assay [5] it was “no binding (tested: rel. affinity >1949)”; in assay [3] it was “no binding (tested: rel. affinity >3467)”; with HLA-DR3 (HLA-DRB1*03:01), “no binding (tested: rel. affinity >825)”.
HQIRQMEMKILRALN (C-terminal amide) [CCNB1 280-294]: the binding result is reported as “no binding (tested: rel. affinity >1949)” in assay [4] and “no binding (tested: rel. affinity >961)” in [1].
Regarding RAILIDWLVQVQMKF (C-terminal amide) [CCNB1 202-216], the binding entry in assay [4] is “no binding (tested: rel. affinity >1949)”.
Consider KNVVMVNQGLTKHMT (C-terminal amide) [CCNB1 385-399], for which the binding result is given as “no binding (tested: rel. affinity >1036)” with HLA-DR7 (HLA-DRB1*07:01), “no binding (tested: rel. affinity >362)” in assay [2] and “no binding (tested: rel. affinity >961)” in assay [1].
MALRVTRNSKINAEN (C-terminal amide) [CCNB1 1-15]: the binding result in assay [2] is “no binding (tested: rel. affinity >362)”; in [1], “no binding (tested: rel. affinity >961)”; with HLA-DR3 (HLA-DRB1*03:01), “no binding (tested: rel. affinity >825)”.
With LALKILDNGEWTPTL (C-terminal amide) [CCNB1 351-365], the binding entry in assay [4] is reported as “no binding (tested: rel. affinity >1949)”; in assay [2], “no binding (tested: rel. affinity >362)”; in [1], “no binding (tested: rel. affinity >961)”; with HLA-DR3 (HLA-DRB1*03:01) it was “no binding (tested: rel. affinity >825)”.
In the case of GNMRAILIDWLVQVQ (C-terminal amide) [CCNB1 199-213], the binding result in assay [4] is reported as “no binding (tested: rel. affinity >1949)”.
